The supplement of paper PMC8612539
Converted amounts (≈) assume the structure as drawn. The source gives many values for each of these; only a part stands here.

System: Escherichia coli
Assay: minimum inhibitory concentration (MIC)
Description: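 Broth microdilution MIC (Sensititre BOPO7F bovine plate, CLSI methods) of 19 antimicrobials against field isolates of P. multocida, M. haemolytica, H. somni (deep nasopharyngeal swabs) and E. coli, Enterococcus spp. (rectal swabs) from weaned dairy heifers. Incubation 16-24 h at 35 C. MIC is the lowest concentration preventing visible growth. Values with <= or > lie at the tested range limits. Trimethoprim-sulfamethoxazole is given as the trimethoprim component of a 1:19 mixture.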

CCN1CCN(c2cc3c(cc2F)c(=O)c(C(=O)O)cn3C2CC2)CC1 [Enrofloxacin]
Details	minimum inhibitory concentration [mg/L]
isolate (source animal id): 221	≤ 0.12
isolate (source animal id): 222	≤ 0.12
isolate (source animal id): 223	0.5 (≈ 1.39 µM)
isolate (source animal id): 224	≤ 0.12
isolate (source animal id): 225	≤ 0.12
isolate (source animal id): 226	> 2
isolate (source animal id): 227	1 (≈ 2.78 µM)
isolate (source animal id): 228	≤ 0.12
isolate (source animal id): 229	> 2
isolate (source animal id): 230	1 (≈ 2.78 µM)
isolate (source animal id): 231	0.5 (≈ 1.39 µM)
isolate (source animal id): 232	0.25 (≈ 0.696 µM)
isolate (source animal id): 233	≤ 0.12
isolate (source animal id): 234	≤ 0.12
isolate (source animal id): 235	0.25 (≈ 0.696 µM)
isolate (source animal id): 236	≤ 0.12
isolate (source animal id): 237	≤ 0.12
isolate (source animal id): 238	≤ 0.12
isolate (source animal id): 239	≤ 0.12
isolate (source animal id): 240	≤ 0.12
isolate (source animal id): 241	≤ 0.12
isolate (source animal id): 242	≤ 0.12
isolate (source animal id): 243	≤ 0.12
isolate (source animal id): 244	≤ 0.12
isolate (source animal id): 245	≤ 0.12
isolate (source animal id): 246	> 2
isolate (source animal id): 247	≤ 0.12
isolate (source animal id): 248	≤ 0.12
isolate (source animal id): 249	≤ 0.12
isolate (source animal id): 250	≤ 0.12
isolate (source animal id): 251	≤ 0.12
isolate (source animal id): 252	≤ 0.12
isolate (source animal id): 253	≤ 0.12
isolate (source animal id): 254	≤ 0.12
isolate (source animal id): 255	≤ 0.12
isolate (source animal id): 256	≤ 0.12
isolate (source animal id): 257	≤ 0.12
isolate (source animal id): 258	≤ 0.12
isolate (source animal id): 259	> 2
isolate (source animal id): 260	≤ 0.12
isolate (source animal id): 261	≤ 0.12
isolate (source animal id): 262	1 (≈ 2.78 µM)
isolate (source animal id): 263	≤ 0.12
isolate (source animal id): 264	≤ 0.12
isolate (source animal id): 265	≤ 0.12
isolate (source animal id): 266	≤ 0.12
isolate (source animal id): 267	≤ 0.12
isolate (source animal id): 268	≤ 0.12
isolate (source animal id): 269	≤ 0.12
isolate (source animal id): 270	≤ 0.12
isolate (source animal id): 271	≤ 0.12
isolate (source animal id): 272	≤ 0.12
isolate (source animal id): 273	≤ 0.12
isolate (source animal id): 274	> 2
isolate (source animal id): 275	0.25 (≈ 0.696 µM)
isolate (source animal id): 276	≤ 0.12
isolate (source animal id): 277	≤ 0.12
isolate (source animal id): 278	≤ 0.12
isolate (source animal id): 279	≤ 0.12
isolate (source animal id): 280	≤ 0.12
isolate (source animal id): 281	0.25 (≈ 0.696 µM)
isolate (source animal id): 282	≤ 0.12
isolate (source animal id): 283	≤ 0.12
isolate (source animal id): 284	≤ 0.12
isolate (source animal id): 285	≤ 0.12
isolate (source animal id): 286	≤ 0.12
isolate (source animal id): 287	≤ 0.12
isolate (source animal id): 288	≤ 0.12
isolate (source animal id): 289	≤ 0.12
isolate (source animal id): 290	≤ 0.12
isolate (source animal id): 291	≤ 0.12
isolate (source animal id): 292	≤ 0.12
isolate (source animal id): 293	≤ 0.12
isolate (source animal id): 294	≤ 0.12
isolate (source animal id): 295	0.25 (≈ 0.696 µM)
isolate (source animal id): 296	≤ 0.12
isolate (source animal id): 297	≤ 0.12
isolate (source animal id): 298	≤ 0.12
isolate (source animal id): 299	≤ 0.12
isolate (source animal id): 300	≤ 0.12
isolate (source animal id): 301	≤ 0.12
isolate (source animal id): 302	≤ 0.12
isolate (source animal id): 303	≤ 0.12
isolate (source animal id): 304	≤ 0.12
isolate (source animal id): 305	≤ 0.12
isolate (source animal id): 306	≤ 0.12
isolate (source animal id): 307	≤ 0.12
isolate (source animal id): 308	≤ 0.12
isolate (source animal id): 309	≤ 0.12
isolate (source animal id): 310	≤ 0.12
isolate (source animal id): 311	≤ 0.12
isolate (source animal id): 312	≤ 0.12
isolate (source animal id): 313	≤ 0.12
isolate (source animal id): 314	≤ 0.12
isolate (source animal id): 315	0.5 (≈ 1.39 µM)
isolate (source animal id): 316	≤ 0.12
isolate (source animal id): 317	0.25 (≈ 0.696 µM)
isolate (source animal id): 318	≤ 0.12
isolate (source animal id): 319	≤ 0.12
isolate (source animal id): 320	≤ 0.12
isolate (source animal id): 321	≤ 0.12
isolate (source animal id): 322	≤ 0.12
isolate (source animal id): 323	≤ 0.12
isolate (source animal id): 324	≤ 0.12
isolate (source animal id): 325	≤ 0.12
isolate (source animal id): 326	≤ 0.12
isolate (source animal id): 327	≤ 0.12
isolate (source animal id): 328	≤ 0.12
isolate (source animal id): 329	≤ 0.12
isolate (source animal id): 330	≤ 0.12
isolate (source animal id): 331	1 (≈ 2.78 µM)
isolate (source animal id): 332	≤ 0.12
isolate (source animal id): 333	≤ 0.12
isolate (source animal id): 334	≤ 0.12
isolate (source animal id): 335	≤ 0.12
isolate (source animal id): 336	≤ 0.12
isolate (source animal id): 337	1 (≈ 2.78 µM)
isolate (source animal id): 338	≤ 0.12
isolate (source animal id): 339	≤ 0.12
isolate (source animal id): 340	≤ 0.12
isolate (source animal id): 341	≤ 0.12
